Source: publication PMC6141507, “A plant Bro1 domain protein BRAF regulates multivesicular body biogenesis and membrane protein homeostasis” (Nature Communications, 2018)
No constants are given. Whether binding was seen depends on the method and setting. For part of these data: A result given as binding can be weak or reduced; the word gives no strength. For part of these data: Sequences can lack the tags named with a protein. For part of these data: In cells and extracts the contact can be indirect.

Legend:
[1] = target: T1, FREE1, yeast two-hybrid fusion (Arabidopsis thaliana) (UniProt Q9ASS2); assay: two-hybrid; binary assays, pGBKT7 and pGADT7 plasmids cotransformed into yeast AH109; selection on SD-His-Trp-Leu with 0-10 mM 3-amino-1,2,4-triazole, 2 days at 30 °C
T1 sequence: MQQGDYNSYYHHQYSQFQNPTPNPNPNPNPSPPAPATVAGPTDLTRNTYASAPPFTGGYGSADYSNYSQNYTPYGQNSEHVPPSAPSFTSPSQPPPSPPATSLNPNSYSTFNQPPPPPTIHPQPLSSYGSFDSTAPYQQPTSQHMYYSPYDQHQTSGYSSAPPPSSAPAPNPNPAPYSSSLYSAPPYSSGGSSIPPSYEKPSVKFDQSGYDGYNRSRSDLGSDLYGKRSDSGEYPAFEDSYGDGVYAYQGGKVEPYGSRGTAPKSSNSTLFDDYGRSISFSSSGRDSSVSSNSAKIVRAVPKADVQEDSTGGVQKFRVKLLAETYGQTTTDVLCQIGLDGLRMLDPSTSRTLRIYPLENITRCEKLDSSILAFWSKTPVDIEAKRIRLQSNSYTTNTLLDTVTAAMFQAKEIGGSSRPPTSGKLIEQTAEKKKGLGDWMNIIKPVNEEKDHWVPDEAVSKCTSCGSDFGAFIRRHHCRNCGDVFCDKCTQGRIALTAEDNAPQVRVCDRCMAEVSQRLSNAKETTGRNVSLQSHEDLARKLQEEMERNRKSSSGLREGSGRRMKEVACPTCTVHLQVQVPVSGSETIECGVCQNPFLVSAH

[2] = target: T2, MBP-Vps23A (Arabidopsis thaliana) (UniProt Q9LHG8); assay: pull-down; amylose resin saturated with MBP or MBP fusion, incubated with 30 pmol His-Sumo protein in 200 µL pull-down buffer (50 mM Tris-HCl, 100 mM NaCl, 10% glycerol, pH 7.5) with 0.2% Triton X-100, 1 h at 4 °C; immunoblot of bead-retained material; both purified
T2 sequence: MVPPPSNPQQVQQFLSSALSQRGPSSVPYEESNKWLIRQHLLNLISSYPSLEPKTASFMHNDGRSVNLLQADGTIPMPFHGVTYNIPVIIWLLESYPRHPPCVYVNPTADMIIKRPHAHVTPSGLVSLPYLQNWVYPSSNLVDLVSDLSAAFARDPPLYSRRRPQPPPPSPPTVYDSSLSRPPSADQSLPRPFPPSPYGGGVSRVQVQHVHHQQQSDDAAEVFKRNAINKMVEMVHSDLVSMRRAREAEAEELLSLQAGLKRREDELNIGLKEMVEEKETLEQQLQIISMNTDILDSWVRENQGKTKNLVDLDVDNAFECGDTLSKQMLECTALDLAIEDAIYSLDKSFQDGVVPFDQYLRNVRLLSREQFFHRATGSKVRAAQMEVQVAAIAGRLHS

[3] = target: T3, Cerulean-Vps23A (Arabidopsis thaliana) (UniProt Q9LHG8); assay: FRET or BRET; acceptor photobleaching FRET (FRET-AB) on colocalized punctae in Arabidopsis protoplasts expressing Cerulean and YFP fusions; Leica SP8, bleaching with the 514 nm laser
T3 sequence: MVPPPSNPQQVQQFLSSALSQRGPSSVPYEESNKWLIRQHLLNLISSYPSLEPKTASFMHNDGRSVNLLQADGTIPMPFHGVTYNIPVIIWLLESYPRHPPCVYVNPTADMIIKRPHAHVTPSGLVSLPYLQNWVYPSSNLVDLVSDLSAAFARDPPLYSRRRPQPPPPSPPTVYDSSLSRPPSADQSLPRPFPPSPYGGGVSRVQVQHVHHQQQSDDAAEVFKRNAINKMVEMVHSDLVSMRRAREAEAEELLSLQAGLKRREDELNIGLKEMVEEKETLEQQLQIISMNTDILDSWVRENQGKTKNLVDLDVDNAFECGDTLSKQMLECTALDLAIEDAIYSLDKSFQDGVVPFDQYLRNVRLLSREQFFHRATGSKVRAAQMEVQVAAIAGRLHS

[4] = target: T2, MBP-Vps23A (Arabidopsis thaliana); assay: pull-down; competition: in vitro binding assay on amylose resin bound with MBP-Vps23A (or the Vps23A CC domain as bait) with a constant amount of one His-SUMO protein (30 pmol BRAF) and 10, 30, 100 or 300 pmol of the competing His-SUMO protein; immunoblot, quantified; both purified
[5] = target: T4, EYFP-Vps23A (Arabidopsis thaliana) (UniProt Q9LHG8); assay: co-IP; Arabidopsis protoplasts transiently co-expressing the tagged proteins; extracts in IP buffer (10 mM Tris-HCl pH 7.4, 150 mM NaCl, 0.5 mM EDTA, 0.2% Nonidet P-40, 5% glycerol, 1 mM DTT) incubated with GFP-Trap agarose beads 4 h at 4 °C; immunoblot
T4 sequence: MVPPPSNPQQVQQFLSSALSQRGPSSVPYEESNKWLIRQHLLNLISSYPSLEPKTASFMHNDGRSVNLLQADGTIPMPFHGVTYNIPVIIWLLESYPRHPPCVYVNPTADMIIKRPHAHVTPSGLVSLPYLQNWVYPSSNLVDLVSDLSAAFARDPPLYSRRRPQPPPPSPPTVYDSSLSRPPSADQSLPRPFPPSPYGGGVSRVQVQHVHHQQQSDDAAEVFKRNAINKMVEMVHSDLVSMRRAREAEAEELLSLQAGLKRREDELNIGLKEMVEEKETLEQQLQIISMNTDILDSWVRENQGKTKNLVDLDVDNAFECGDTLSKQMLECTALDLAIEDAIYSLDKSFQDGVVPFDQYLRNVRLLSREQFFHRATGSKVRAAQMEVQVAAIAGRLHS

[6] = target: BRAF-YFP (Arabidopsis thaliana); assay: as above
[7] = target: BRAF (BRo1-domain protein As FREE1 suppressor), yeast two-hybrid fusion (Arabidopsis thaliana); assay: two-hybrid; binary assays, pGBKT7 and pGADT7 plasmids cotransformed into yeast AH109; selection on SD-His-Trp-Leu with 0-10 mM 3-amino-1,2,4-triazole, 2 days at 30 °C
[8] = target: AT1G13310 (single Bro1-domain protein), yeast two-hybrid fusion (Arabidopsis thaliana); assay: as above
[9] = target: AT1G17940 (single Bro1-domain protein), yeast two-hybrid fusion (Arabidopsis thaliana); assay: as above

Molecule: Vps23A with the C-terminal steadiness box (SB) domain deleted, yeast two-hybrid fusion (Arabidopsis thaliana) (domain or fragment)
- binding [1]: binds

Molecule: Vps23A CC domain, yeast two-hybrid fusion (Arabidopsis thaliana) (domain or fragment)
- binding [1]: binds

Molecule: Vps23A with the N-terminal UEV domain deleted, yeast two-hybrid fusion (Arabidopsis thaliana) (domain or fragment)
- binding [1]: binds

Molecule: Vps23A with the proline-rich region (PRR) deleted, yeast two-hybrid fusion (Arabidopsis thaliana) (domain or fragment)
- binding [1]: binds

Molecule: His-Sumo-BRAF(A330V) (Arabidopsis thaliana)
- binding [2]: binds

Molecule: BRAF(C3A)-YFP (Arabidopsis thaliana)
- binding [3]: binds

Molecule: His-Sumo-BRAF (Arabidopsis thaliana)
- binding [4]: binds
- binding [2]: binds

Molecule: 3 × HA-BRAF(A330V) (Arabidopsis thaliana)
- binding [5]: binds

Molecule: BRAF-4 × HA (Arabidopsis thaliana)
- binding [5]: binds

Molecule: BRAF-YFP (Arabidopsis thaliana)
- binding [3]: binds

Molecule: 3 × HA-BRAF (Arabidopsis thaliana)
- binding [5]: binds

B1: Myc-tagged Vps23A (protein, UniProt Q9LHG8 1-398)
chain: MVPPPSNPQQVQQFLSSALSQRGPSSVPYEESNKWLIRQHLLNLISSYPSLEPKTASFMHNDGRSVNLLQADGTIPMPFHGVTYNIPVIIWLLESYPRHPPCVYVNPTADMIIKRPHAHVTPSGLVSLPYLQNWVYPSSNLVDLVSDLSAAFARDPPLYSRRRPQPPPPSPPTVYDSSLSRPPSADQSLPRPFPPSPYGGGVSRVQVQHVHHQQQSDDAAEVFKRNAINKMVEMVHSDLVSMRRAREAEAEELLSLQAGLKRREDELNIGLKEMVEEKETLEQQLQIISMNTDILDSWVRENQGKTKNLVDLDVDNAFECGDTLSKQMLECTALDLAIEDAIYSLDKSFQDGVVPFDQYLRNVRLLSREQFFHRATGSKVRAAQMEVQVAAIAGRLHS
- binding [6]: binds

B2: SNF7A, yeast two-hybrid fusion (protein, UniProt O82197 1-213)
chain: MFMNRLFGKPKQETSTLQTLDKLNETLEMLEKKENVLLKKATGEVEKAKEFSRAKNKRAAIQCLKRKRLYEQQVEQLGNFQLRIHDQMIMLEGAKATTETVDALRTGASAMKAMQKATNIDDVDKTMDEINEQTENMKQIQEALSAPFGANDFDEDELEAELDELEGAELEEQLLQPVPIHVPQGNKPARAPAQKQPTAEEDELAALQAEMAL
- binding [7]: no binding

B3: SNF7B, yeast two-hybrid fusion (protein, UniProt Q9SZE4 1-219)
chain: MMNRLFGKPKQEANALQTLDKLNETLEMLEKKEKVLLKKAGAEVEKAKEYSRAKNKRAAIQCLKRKRLYEGQVEQLGNFQLRIHDQMIMLEGAKATTETVDALRSGASAMKAMQKATNIDDVDKTMDEINEQTENMKQIQEALATPMGAAADFDEDELAAELDELESEELESQLLQPATTAPPLPSVPVPAGRQPARPVPQKRTAEEEELAALQAEMAL
- binding [7]: no binding

B4: AMSH1 (de-ubiquitinating enzyme), yeast two-hybrid fusion (enzyme, UniProt Q8VYB5 1-507)
chain: MGSSFETIDIATSARRIGVDNRISLKFYFRIADNILKQANIFRAEKNVIDLYVMLLRFSSLALETIPSHRDYRTSLKSNKEYLRMRLLDVLTELEKLKPVVQQRIDELYPKLKPRYNVQAHPANGSLGWSSAVKPSFNSYDHAKVRNPPGHNSGYMGSRGQQFLNAAPLEERFRKMSVNFRPNEETLSKHSILGPGGLSAQWQPPKYDTKVQYPSNIDFSPVVIPSFQQLVDSKPMITNGSNDEPEKPIVEPSVASNEKIQKNYTEELSSMISFEEPESVNENNLIRQPSPPPVLAEVQDLVPALCPEVREPECMIENSLPDESLRSESPLELHIATSMMDTFMRLAKSNTKKNLETCGILAGSLKNRKFYITALIIPKQESTSDSCQATNEEEIFEVQDKQSLFPLGWIHTHPTQSCFMSSIDVHTHYSYQIMLPEAVAIVMAPQDSSRNHGIFRLTTPGGMTVIRNCDRRGFHAHSSPEDGGPIYNTCKEVYMNPNLKFDVIDLR
- binding [7]: no binding

B5: Vps23A, yeast two-hybrid fusion (protein, UniProt Q9LHG8 1-398)
chain: MVPPPSNPQQVQQFLSSALSQRGPSSVPYEESNKWLIRQHLLNLISSYPSLEPKTASFMHNDGRSVNLLQADGTIPMPFHGVTYNIPVIIWLLESYPRHPPCVYVNPTADMIIKRPHAHVTPSGLVSLPYLQNWVYPSSNLVDLVSDLSAAFARDPPLYSRRRPQPPPPSPPTVYDSSLSRPPSADQSLPRPFPPSPYGGGVSRVQVQHVHHQQQSDDAAEVFKRNAINKMVEMVHSDLVSMRRAREAEAEELLSLQAGLKRREDELNIGLKEMVEEKETLEQQLQIISMNTDILDSWVRENQGKTKNLVDLDVDNAFECGDTLSKQMLECTALDLAIEDAIYSLDKSFQDGVVPFDQYLRNVRLLSREQFFHRATGSKVRAAQMEVQVAAIAGRLHS
- binding [8]: no binding
- binding [9]: no binding
